In PubChem BioAssay AID540256 (National Center for Advancing Translational Sciences (NCATS), 2011):
Screen size: about 300,000 compounds; about 3,700 (1.2%) were called active. This list was built around the results that the source calls inconclusive (neither active nor inactive); the mix of calls is not that of the screen. Calls follow the shape of the full dose curve; tested in HEK293 cells. A potency beside an inconclusive call is a rough fit, not a confirmed value.

Test: qHTS for Inhibitors of binding or entry into cells for Lassa Virus; also: nearly all actives have a fitted effect of over 50% in size
Conditions: Lassa virus pseudotype entry inhibition, cell reporter; series mostly up to 37.9 µM
Potency is read from the fitted curve at half-maximal effect.

Row | SMILES | Potency
1 | Cc1ccc(NC(=O)c2ccc(Cl)c(S(=O)(=O)Nc3c(C)n(C)n(-c4ccccc4)c3=O)c2)cc1Cl | inconclusive: 11.2 µM [inhibitor, partial curve]
2 | COc1ccc(CCNC(=O)c2cc3c(F)cccc3s2)cc1OC | inconclusive: 8.91 µM [inhibitor, partial curve, poor fit]
3 | COc1ccc(C2=COc3ccccc3C(=O)N2)cc1 | inactive
4 | COC(=O)c1nn(-c2ccc3c(c2)CCN3C(C)=O)cc1O | active: 2.59 µM
5 | O=C1c2cccnc2C(=O)N1Cc1ccco1 | inconclusive: 6.51 µM [activator, single point]
6 | CCN(CC)C1=CC(=[N+]2CCCC2)CC(C)(C)C1 | inconclusive: 20.6 µM [inhibitor, single point]
7 | COc1ccc(C(=O)NC(=O)Nc2cc(C)ccn2)cc1 | inconclusive: 1.16 µM [inhibitor, full curve, poor fit]
8 | CSc1ccccc1C(=O)Nc1nc2ccccc2c(=O)[nH]1 | inconclusive: 35.5 µM [inhibitor, single point]
9 | O=C(c1cccs1)N(C(=O)c1cccs1)c1ccc(Br)cn1 | inconclusive: 29.1 µM [inhibitor, single point]
10 | NC(N)=NS(=O)(=O)c1ccc(NC(=S)NC(=O)c2ccncc2)cc1 | inactive
11 | COc1ccccc1Nc1sc(C(=O)c2ccc(C)cc2C)c(N)c1S(=O)(=O)c1ccccc1 | inactive
12 | C=CCC1(C#N)C(SC)=NC2=C(C(=O)CC(C)(C)C2)C1c1ccc(Br)cc1 (configuration not stated) | inconclusive: 35.5 µM [inhibitor, single point]
13 | O=[N+]([O-])c1ccc(CN2CCCCCC2)cc1 | inconclusive: 35.5 µM [inhibitor, single point]
14 | O=C(Nc1ccc(N2CCN(C(=O)c3ccccc3)CC2)c(Cl)c1)c1ccc(Br)o1 | active: 20.6 µM
15 | Nc1ccc2c3c(cccc13)C(=O)NC2=O | inconclusive: 1.3 µM [activator, full curve, poor fit]
16 | Cc1sc(NC(=O)c2cc(-c3ccccc3)nc3ccccc23)c(C(N)=O)c1C | inactive
17 | CC(C)c1nc(SCC(=O)N2CCc3ccccc32)n[nH]1 | inactive
18 | CCOC(=O)C1C(=O)CC(C)(O)C(C(=O)OCC)C1c1cccc(OC(F)(F)C(F)F)c1 (configuration not stated) | inactive
19 | COc1ccc(CNC(=O)CNC(=O)c2sc3ccccc3c2Cl)cc1OC | inconclusive: 20 µM [inhibitor, single point]
20 | CC1CCN(S(=O)(=O)c2ccc3c(c2)CCN3)CC1 | inactive
21 | CC1=C(C(=O)Nc2cccc(Cl)c2C)C2(CCCCCC2)OC1=O | inactive
22 | Cc1cc(C(=O)C(C)Sc2cccc[n+]2[O-])c(C)n1-c1ccc(Cl)cc1 (configuration not stated) | inconclusive: 15.8 µM [inhibitor, single point]
23 | CCOc1ccc(NC(=O)CC2SC(=O)N(c3ccccc3)C2=O)cc1 (configuration not stated) | inactive
24 | CCNc1nc(NCc2ccc(F)cc2)c2cnn(C)c2n1 | inactive

Row | SMILES | Potency
25 | COc1ccccc1Cn1c(=S)[nH]c2ccc(Br)cc2c1=O | inactive
26 | O=C(CNC(=S)N(Cc1ccccc1)Cc1ccccc1F)NCc1ccc(Cl)cc1 | inconclusive: 20 µM [inhibitor, single point]
27 | O=c1cccccc1NCc1ccccc1 | inactive
28 | CN(C)CCN(C(=O)c1ccc2c(c1)CCCC2)c1nc2cc3c(cc2s1)OCCO3 | inconclusive: 15.8 µM [inhibitor, partial curve, poor fit]
29 | O=C(c1ccccc1OCc1ccccc1Br)N1CCN(c2ncccn2)CC1 | inconclusive: 20.6 µM [inhibitor, single point]
30 | Cn1cc(C(=O)Nc2ccc3c(c2)CCC3)cn1 | inconclusive: 3.16 µM [activator, full curve]
31 | COc1ccc(CNc2nc3c(-c4ccccc4)nnn3c3ccccc23)cc1 | inactive
32 | Cc1cc(C)c2c(N)c(C(=O)N3CCN(c4ncccn4)CC3)sc2n1 | inactive
33 | CCOc1ccc(S(=O)(=O)N(CC(=O)NCc2cccnc2)c2ccc(F)cc2)cc1 | inconclusive: 10 µM [inhibitor, single point]
34 | O=C(NCCc1ccccc1)c1nc(-c2ccc(Cl)cc2)n2c1CCCCC2 | inconclusive: 35.5 µM [inhibitor, partial curve, poor fit]
35 | COc1ccc(NC(=S)N(CCC(C)C)C(C)c2ccncc2)cc1 (configuration not stated) | inactive
36 | COCc1cc(OC(=O)N(C)C)nc(-c2ccc(C)c(Cl)c2)n1 | inconclusive: 6.31 µM [inhibitor, full curve]
37 | COc1ccc(CNC(=O)C(c2ccc(O)cc2)N(Cc2ccco2)C(=O)c2snc(C(N)=O)c2N)cc1 (configuration not stated) | inconclusive: 12.6 µM [inhibitor, partial curve, poor fit]
38 | COc1cccc(C(=O)NCC(=O)N/N=C(\C)Cc2ccccc2)c1 | inconclusive: 5.01 µM [activator, single point]
39 | COc1cccc(/C=C2\SC(=O)NC2=O)c1OCc1ccc(C(=O)O)cc1 | inconclusive: 8.91 µM [activator, partial curve, poor fit]
40 | COc1ccc(-c2nnc(SC(C(=O)c3c[nH]c4ccccc34)c3ccccc3)n2N)cc1OC (configuration not stated) | inconclusive: 29.1 µM [inhibitor, single point]
41 | CCOC(=O)c1nn(-c2ccc(Cl)cc2)c2nnc(Cc3ccc(C)cc3)c(=O)n12 | inactive
42 | COc1ccccc1C(=O)Nc1ccccc1OCc1cc(=O)n2ccccc2n1 | inactive
43 | COc1ccc(Cn2cnc3c(N)c(C)c(C)cc32)cc1 | inactive
44 | COc1ccc([N+](=O)[O-])cc1NC(=O)C(C)N(C)Cc1cccc(OC)c1OC (configuration not stated) | inconclusive: 35.5 µM [inhibitor, single point]
45 | O=C(Nc1ccc2c(c1)oc1ccccc12)c1ccc(Br)o1 | inconclusive: 14.1 µM [inhibitor, single point]
46 | COc1cc(C(=O)NCC2CCCCC2)cc(OC)c1OC | inactive
47 | CC(=O)Nc1ccc(S(=O)(=O)NCc2nc(-c3ccccc3)no2)cc1 | inconclusive: 3.16 µM [inhibitor, single point]
48 | CCOC(=O)COC(=O)c1ccc(O)cc1 | inactive

Four of the compounds above, with tabs.
Row	SMILES	Potency
36	COCc1cc(OC(=O)N(C)C)nc(-c2ccc(C)c(Cl)c2)n1	inconclusive: 6.31 µM [inhibitor, full curve]
39	COc1cccc(/C=C2\SC(=O)NC2=O)c1OCc1ccc(C(=O)O)cc1	inconclusive: 8.91 µM [activator, partial curve, poor fit]
43	COc1ccc(Cn2cnc3c(N)c(C)c(C)cc32)cc1	inactive
44	COc1ccc([N+](=O)[O-])cc1NC(=O)C(C)N(C)Cc1cccc(OC)c1OC (configuration not stated)	inconclusive: 35.5 µM [inhibitor, single point]

(further entries)

Row | SMILES | Potency
49 | NS(=O)(=O)c1ccc(Nc2nc(-c3cccc([N+](=O)[O-])c3)cs2)cc1 | inactive
50 | CCCN(CC1CC1)C(=O)CSc1nnc(-c2cc(-c3cccs3)nc3ccccc23)o1 | inconclusive: 35.5 µM [inhibitor, single point]
51 | O=C(NCCn1ccc2ccccc21)c1ccc(Cl)cc1 | inactive
52 | COc1ccccc1NC(=O)CSc1nc(-c2ccc(C(C)(C)C)cc2)c(C#N)c(=O)[nH]1 | inactive
53 | Cc1cccc(N2CCN(CCNC(=O)Nc3ccc(Cl)cc3)CC2)c1C | inactive
54 | CCc1cccc(-n2c(=O)c3cccnc3n2CC(=O)Nc2ccc(F)c(C)c2)c1 | inconclusive: 3.16 µM [inhibitor, partial curve, poor fit]
55 | COc1ccc2cc(C(=O)OC(C)C)sc(=O)c2c1OC | inconclusive: 35.5 µM [inhibitor, single point]
56 | CC(=O)Nc1ccc(Oc2nc(-c3ccccn3)nc3ccccc23)cc1 | inconclusive: 35.5 µM [inhibitor, single point]
57 | CC(C)Cc1ccc(C(C)C(=O)OCC(=O)c2c[nH]c3ccccc23)cc1 (configuration not stated) | inconclusive: 29.1 µM [inhibitor, single point]
58 | CCOc1cc(/C=N/Nc2nc3ccccc3[nH]2)cc(Br)c1OCC(=O)N(C)C | inconclusive: 22.4 µM [inhibitor, single point]
59 | CN(C)C(=O)Oc1ccc(OCc2cccc[n+]2C)cc1 | inconclusive: 5.01 µM [activator, single point]
60 | COc1ccc(Cl)cc1N/C(N)=N/c1nc(C)cc(C)n1 | inconclusive: 11.2 µM [activator, partial curve, poor fit]
61 | Cc1ccc2c(c1)C1CN(C)CCC1N2Sc1ccccc1[N+](=O)[O-] (configuration not stated) | active: 7.08 µM
62 | CC1=C(C(=O)OCCNC(=O)c2ccccc2O)C(c2ccccc2[N+](=O)[O-])C(C(=O)OCC2CCCO2)=C(C)N1 (configuration not stated) | active: 10 µM
63 | CCCn1c(SCC(=O)c2cc(OC)ccc2OC)nnc1C(C)C | inconclusive: 6.31 µM [activator, single point]
64 | CCOC(=O)Cc1nnc2c(Nc3ccc(Cl)cc3)nc3nonc3n12 | inconclusive: 13 µM [inhibitor, partial curve, poor fit]
65 | COc1cccc(C(=O)Nc2c(C(=O)N3CCN(c4ccc(F)cc4)CC3)oc3ccccc23)c1 | inactive
66 | COCc1ccc(C(=O)Nc2cccc(S(=O)(=O)N(C)c3ccccc3)c2)cc1 | inconclusive: 10 µM [inhibitor, partial curve, poor fit]
67 | COc1cccc(C(=O)Nc2cc(C)nn2-c2ccccc2)c1OC | inconclusive: 12.6 µM [inhibitor, partial curve, poor fit]
68 | CCN(CC)C1=NC(=[N+](CC)CC)c2ccccc21 | inconclusive: 10.3 µM [inhibitor, partial curve]
69 | Cc1ccc(NC(=S)Nc2c(C)n(C)n(-c3ccccc3)c2=O)cc1 | inactive
70 | CCN(Cc1cc2cccc(C)c2[nH]c1=O)C(=O)c1ccccc1OC | inactive
71 | O=C(c1cccnc1)N1CCN(S(=O)(=O)c2cccc(Cl)c2)CC1 | inconclusive: 5.62 µM [activator, single point]
72 | CC1=CN2C(=N)/C(=C\c3cn(CCCOc4ccccc4)c4ccccc34)C(=O)N=C2S1 | inconclusive: 35.5 µM [inhibitor, single point]
